Data: ChEMBL document CHEMBL1140325, “Discovery of high-affinity ligands of sigma1 receptor, ERG2, and emopamil binding protein by pharmacophore modeling and virtual screening” (J Med Chem, 2005)

Chains of the proteins cited; added tags and fusions are not shown. Lines headed by an entry give the natural chain unless they say otherwise; changes in a name come on top.
UniProt P32352: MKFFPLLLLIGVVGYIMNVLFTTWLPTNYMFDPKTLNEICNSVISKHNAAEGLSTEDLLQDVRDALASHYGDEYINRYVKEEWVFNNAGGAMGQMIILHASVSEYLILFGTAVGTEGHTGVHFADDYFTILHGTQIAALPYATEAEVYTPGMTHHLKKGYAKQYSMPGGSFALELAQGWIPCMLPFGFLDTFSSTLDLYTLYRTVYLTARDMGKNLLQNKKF

Molecular target: C-8 sterol isomerase ERG2 (Saccharomyces cerevisiae S288c, UniProt P32352)
Experiment: Affinity for ERG2 of Saccharomyces cerevisiae using [3H]ifenprodil or (+)-[3H]pentazocine radioligand

SMILES: CCCCc1oc2ccccc2c1C(=O)c1cc(I)c(OCCN(CC)CC)c(I)c1 [AMIODARONE]
- Ki: 62 nM
